Data as given in PubChem BioAssay AID1259425 (University of Nebraska Medical Center, 2018).

Aim: 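Find knockdowns that reproduce the gene expression pattern seen when KSR1 is lost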 (primary screen)
Cells: HCT116 human colon cancer cells
Knock-down reagent: siRNA pool against human genes, 50 nM siRNA
Read-out: 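mRNA of six signature genes measured together by branched-DNA assay after 50 nM siRNA pool, blank removed, divided by geometric mean of two housekeeping genes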
Scale: BNIP3L mRNA: higher = more BNIP3L transcript after knockdown; NDRG1 mRNA: higher = more NDRG1 transcript after knockdown
This is one part, drawn at random, of about 14,000 deposited reagents. Further read-outs or replicates are left out here. Not given: the time to read-out.

Silencing of FRMPD4 (GeneID 9758) resulted in: BNIP3L mRNA, set 1 = 0.158; NDRG1 mRNA, set 1 = 0.262.
Knock-down of PCDHB6 (GeneID 56130) resulted in: BNIP3L mRNA, set 1 = 0.102; NDRG1 mRNA, set 1 = 0.197.
For AAMP (GeneID 14) the deposit lists BNIP3L mRNA, set 1 = 0.228; NDRG1 mRNA, set 1 = 0.335.
Against NEK7 (GeneID 140609) the deposit lists BNIP3L mRNA, set 1 = 0.0501; NDRG1 mRNA, set 1 = 0.127.
Knock-down of PIK3R3 (GeneID 8503) resulted in: BNIP3L mRNA, set 1 = 0.23; NDRG1 mRNA, set 1 = 0.215.
CD83 (GeneID 9308) gave BNIP3L mRNA, set 1 = 0.124; NDRG1 mRNA, set 1 = 0.125.
PABPC4 (GeneID 8761) gave BNIP3L mRNA, set 1 = 0.0657; NDRG1 mRNA, set 1 = 0.167.
CMSS1 (GeneID 84319) scored BNIP3L mRNA, set 1 = 0.221; NDRG1 mRNA, set 1 = 0.205.
After knock-down of ERCC6L (GeneID 54821), the screen gave BNIP3L mRNA, set 1 = 0.14; NDRG1 mRNA, set 1 = 0.35.
After knock-down of HDLBP (GeneID 3069), the record shows BNIP3L mRNA, set 1 = 0.158; NDRG1 mRNA, set 1 = 0.148.
Depletion of GNL2 (GeneID 29889) resulted in: BNIP3L mRNA, set 1 = 0.237; NDRG1 mRNA, set 1 = 1.17.
After knock-down of EMD (GeneID 2010), the record shows BNIP3L mRNA, set 1 = 0.11; NDRG1 mRNA, set 1 = 0.132.
Depletion of TIGD6 (GeneID 81789) gave: BNIP3L mRNA, set 1 = 0.158; NDRG1 mRNA, set 1 = 0.841.
ITGA11 (GeneID 22801) gave BNIP3L mRNA, set 1 = 0.176; NDRG1 mRNA, set 1 = 0.0729.
After knock-down of ZBTB1 (GeneID 22890) the results were BNIP3L mRNA, set 1 = 0.0973; NDRG1 mRNA, set 1 = 0.388.
After knock-down of BRI3 (GeneID 25798), the screen gave BNIP3L mRNA, set 1 = 0.188; NDRG1 mRNA, set 1 = 0.347.
After knock-down of RASAL2 (GeneID 9462), the screen gave BNIP3L mRNA, set 1 = 0.264; NDRG1 mRNA, set 1 = 0.346.
Against HLA-DRB4 (GeneID 3126), the values are BNIP3L mRNA, set 1 = 0.0888; NDRG1 mRNA, set 1 = 0.169.
Silencing of IDI1 (GeneID 3422) resulted in: BNIP3L mRNA, set 1 = 0.112; NDRG1 mRNA, set 1 = 0.141.
PDK3 (GeneID 5165) gave BNIP3L mRNA, set 1 = 0.0715; NDRG1 mRNA, set 1 = 0.0568.
For TSSC4 (GeneID 10078) the deposit lists BNIP3L mRNA, set 1 = 0.105; NDRG1 mRNA, set 1 = 0.131.
With knock-down of DLX3 (GeneID 1747) the results were BNIP3L mRNA, set 1 = 0.0807; NDRG1 mRNA, set 1 = 0.0872.
Against EIF4B (GeneID 1975) the deposit lists BNIP3L mRNA, set 1 = 0.0396; NDRG1 mRNA, set 1 = 0.213.
Against TOR4A (GeneID 54863), the entry reads BNIP3L mRNA, set 1 = 0.0758; NDRG1 mRNA, set 1 = 0.269.
After knock-down of CSPG4 (GeneID 1464) the results were BNIP3L mRNA, set 1 = 0.15; NDRG1 mRNA, set 1 = 0.159.
Against CARTPT (GeneID 9607), the values are BNIP3L mRNA, set 1 = 0.135; NDRG1 mRNA, set 1 = 0.281.
VSX1 (GeneID 30813) scored BNIP3L mRNA, set 1 = 0.123; NDRG1 mRNA, set 1 = 0.153.
For EEF1E1 (GeneID 9521) the deposit lists BNIP3L mRNA, set 1 = 0.187; NDRG1 mRNA, set 1 = 0.207.
ORC2 (GeneID 4999) gave BNIP3L mRNA, set 1 = 0.146; NDRG1 mRNA, set 1 = 0.121.
After knock-down of NOL3 (GeneID 8996), the record shows BNIP3L mRNA, set 1 = 0.0547; NDRG1 mRNA, set 1 = 0.158.
With knock-down of DENND1C (GeneID 79958), the screen gave BNIP3L mRNA, set 1 = 0.128; NDRG1 mRNA, set 1 = 0.526.
Silencing of LY6H (GeneID 4062) gave: BNIP3L mRNA, set 1 = 0.0839; NDRG1 mRNA, set 1 = 0.0728.
With knock-down of EIF4A3 (GeneID 9775), the record shows BNIP3L mRNA, set 1 = 0.151; NDRG1 mRNA, set 1 = 0.485.
Depletion of DEDD (GeneID 9191) resulted in: BNIP3L mRNA, set 1 = 0.152; NDRG1 mRNA, set 1 = 0.0826.
Against PDE6D (GeneID 5147) the deposit lists BNIP3L mRNA, set 1 = 0.0542; NDRG1 mRNA, set 1 = 0.213.
For LYST (GeneID 1130) the deposit lists BNIP3L mRNA, set 1 = 0.0853; NDRG1 mRNA, set 1 = 0.141.
